Legend:
[1] = Color development of chromogen-reactive-indicator composition with glucose stock solutions (glucose oxidase/peroxidase)
[2] = Discoloration of / absorption by analyzer tubing immersed in chromogen reagent; conditions: tubing immersed for 25 hours in reagent composition
[3] = room temperature; background; cited from earlier work
[4] = 25° C, 450 nm (o-tolidine 430 nm), pH value 6.5
[5] = 37° C, 450 nm (o-tolidine 430 nm), pH value 6.5

Compound | Maximum color development at 450 nm ([1]; 0.2 mM chromogen, 25° C) [min] | Maximum color development at 450 nm ([1]; 0.2 mM chromogen, 37° C) [min] | Time for color development in minutes, 25° C [1, 4] [min] | Time for color development in minutes, 37° C [1, 5] [min] | Discoloration of tube samples [2] | Maximum color development at 430 to 450 nm ([1]; 0.2 mM chromogen, 430 to 450 nm, 25° C) [min] | Color development time [3] [min] | Time for color development in minutes, 25° C ([1]; 25° C, 630 nm, pH value 4.5) [min] | Time for color development in minutes, 37° C ([1]; 37° C, 630 nm, pH value 4.5) [min]
Cl.Cl.Nc1ccc(-c2ccc(N)c(OCCCC(=O)O)c2)cc1OCCCC(=O)O [Example 1(d), Gamma, gamma'-(4,4'-diamino-3,3'-biphenyldioxy)dibutyric acid dihydrochloride] | ≤ 25 | ≤ 15 | 25 | 15 | remained colorless | – | – | – | –
Nc1ccc(-c2ccc(N)c(OCCCS(=O)(=O)O)c2)cc1OCCCS(=O)(=O)O [Example 3(b), Gamma,gamma'-(4,4'-diamino-3,3'-biphenyldioxy)dipropane sulfonic acid] | – | – | 25 | 15 | – | ≤ 25 | – | – | –
COc1cc(-c2ccc(N)c(OC)c2)ccc1N [o-dianisidine] | – | – | 50 | 35 | turned brown | – | 50 to 60 | – | –
Cc1cc(-c2ccc(N)c(C)c2)ccc1N [o-tolidine] | – | – | 60 | 45 | – | – | 50 to 60 | 10 | 6
